In paper PMC7862700:
Only a part is listed here, and it is no random draw. At the low end of the ranking, values are background and their order means little.

The sequences below were run against SPI1 (UniProt P17947) (assay: DAPPL (digital affinity profiling via proximity ligation, sequencing)). Details: 10 mM Tris-HCl pH 7.5, 50 mM NaCl, 1 mM DTT, 4% glycerol, room temperature, 30 min; GST-TFs on glutathione beads, 16-mer random dsDNA library, 0.1% …; high values mean tight binding; double strand, one strand shown; scale: fold enrichment (6-mer frequency, TF over GST control).

Sequence	binding signal
CCCTGA	1.03
GGAATA	0.907
TTAGAG	0.899
GATTAA	0.965
CTAGGA	0.805
CATCAG	0.912
GATCCC	1.11
TTAGCC	0.958
CCCGCT	1.37
GCGTTG	0.93
GCTTCT	1.43
TCTCAG	1.55
CTCGAA	1.17
TATCCC	1.36
ACAGTT	0.775
AAAATA	1.18
TTATAA	1.16
TAAGAG	0.857
ATCTCA	1.12
GTGCCG	0.864

Single values from the list.
For binding signal, GATCCC shows 1.11
For binding signal, CCCGCT shows 1.37

Remaining list, next part

Sequence	binding signal
GTCTCT	1.32
ACGTCT	1.15
CTCGGT	1.1
GGCCTG	0.867
ATATAG	1.2
CATAGC	0.986
CTACCC	1.31
CACGGA	0.951
GATAAC	0.928
TTTGCC	1.23
GCTAAG	0.972
CTTAAC	1.32
ATTACC	1.16
CGGTAT	0.966
TAGGAT	0.925
AACCCT	1.32
CCAAAT	1.09
CTTACT	1.3
CCACAG	0.936
